Assay: Caco-2 monolayer bidirectional permeability
Assay type: in vitro ADME
Details: human, Caco-2, pH 7.4, control P-gp substrate, read-out: Polarization Ratio mean (B-A/A-B)
Experimental: Permeability studies were conducted by an outside contractor on behalf of the assignee of the present invention and application to determine the permeability of Compound A through Caco-2 monolayers. An important factor of oral bioavailability is the ability of e compound to be absorbed in the small intestine. […] Monolayer integrity was evaluated by pre-experimental trans-epithelial electrical resistance (TEER) measurements and post-experimental lucifer yellow A to B flux determinations. […] The donor and receiver solutions were added to the apical or basolateral chambers of the monolayers (depending on the direction of transport to be measured). […] Samples were analyzed by LC/MS/MS using peak area ratios to an internal standard. Test article concentrations were calculated based on the peak area ratios obtained for appropriate dilutions of the donor solution containing the test article at the nominal concentration in transport buffer. […] Comparator and control samples were analyzed by liquid scintillation counting. Lucifer yellow concentrations were determined using a fluorescence plate reader.

Structure (SMILES): C[C@H]1O[C@@H](O[C@H]2[C@@H](O)C[C@H](O[C@H]3[C@@H](O)C[C@H](O[C@H]4CC[C@@]5(C)[C@H](CC[C@@H]6[C@@H]5C[C@@H](O)[C@]5(C)[C@@H](C7=CC(=O)OC7)CC[C@]65O)C4)O[C@@H]3C)O[C@@H]2C)C[C@H](O)[C@@H]1O [digoxin, reference compound]
- efflux ratio at 90 min, 5 μM: 5.4
